Assay results reported in publication PMC4016012, “Successful Conversion of the Bacillus subtilis BirA Group II Biotin Protein Ligase into a Group I Ligase” (PLoS ONE, 2014).

Biological target: T1, BirA (biotin protein ligase, Group II) (Bacillus subtilis 168) (UniProt P0CI75)
T1 sequence (looked up): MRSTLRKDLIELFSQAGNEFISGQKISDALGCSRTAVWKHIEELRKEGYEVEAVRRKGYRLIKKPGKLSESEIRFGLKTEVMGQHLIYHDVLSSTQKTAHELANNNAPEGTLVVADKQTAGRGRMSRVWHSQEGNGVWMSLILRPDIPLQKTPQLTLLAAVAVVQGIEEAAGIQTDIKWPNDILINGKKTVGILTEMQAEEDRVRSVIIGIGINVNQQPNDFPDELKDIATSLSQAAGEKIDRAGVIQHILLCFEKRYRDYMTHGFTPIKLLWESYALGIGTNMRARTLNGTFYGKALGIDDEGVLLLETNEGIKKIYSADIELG
Test: EMSA
Details: no biotin/ATP added, BirA not hydroxylamine-treated (carries Bio-5'-AMP), some interaction; 50 mM Tris-HCl pH 8.0, 1 mM EDTA, 50 mM NaCl, 10% glycerol, 40 nM DNA, 15.6-500 nM BirA, 1 mM ATP, 1 mM MgCl2, 1 uM biotin; room temperature 30 min; 6% gel in 0.5X TBE; recombinant protein; residues 1-325; probe letters rebuilt from the primers and the genome

Sequence: CCTTTCACTGATAACTGAAGAACGTGTAGCGCTTCTCACCTAAATTGTTAACCAATTATATTCAAAGGTTAACAATTAGAATATATTATTCTCTCCTGTTTCTGTCAATAGAAGAAAGGATC (double strand) [B. subtilis bioO (bioWAFDBI operator)]
- binding result: binds more weakly

The exact form of at least one protein or probe is not confirmed. The comparison behind a weaker result is the experiment's own reference, which may not be listed here. Protein sequences can lack the tags named with them.
